ChEMBL document CHEMBL1157379, “Transcriptional response of Candida parapsilosis following exposure to farnesol” (2007)
The source gives many values for each of these; only a part stands here.

Experiments:
Assay type in all cases: functional
Candida parapsilosis [1] = experiment: Increase in PRT1 gene expression in Candida parapsilosis CLIB214 at 50 uM after 2 hrs by microarray based transcriptional profiling relative to control
Candida parapsilosis [2] = experiment: Increase in GenBank accession number NP_943640.1 expression in Candida parapsilosis CLIB214 at 50 uM after 2 hrs by microarray based transcriptional profiling relative to control
Candida parapsilosis [3] = experiment: Increase in CGD gene ortholog accession number orf19.4621 expression in Candida parapsilosis CLIB214 at 50 uM after 2 hrs by microarray based transcriptional profiling relative to control
Candida parapsilosis [4] = experiment: Increase in CGD gene ortholog accession number orf19.3291 expression in Candida parapsilosis CLIB214 at 50 uM after 2 hrs by microarray based transcriptional profiling relative to control
Candida parapsilosis [5] = experiment: Decrease in CGD gene ortholog accession number orf19.6602 expression in Candida parapsilosis CLIB214 at 50 uM after 2 hrs by microarray based transcriptional profiling relative to control
Candida parapsilosis [6] = experiment: Decrease in CGD gene ortholog accession number orf19.3060 expression in Candida parapsilosis CLIB214 at 50 uM after 2 hrs by microarray based transcriptional profiling relative to control
Candida parapsilosis [7] = experiment: Increase in GenBank accession number NP_943644.1 expression in Candida parapsilosis CLIB214 at 50 uM after 2 hrs by microarray based transcriptional profiling relative to control
Candida parapsilosis [8] = experiment: Increase in GDH3 gene expression in Candida parapsilosis CLIB214 at 50 uM after 2 hrs by microarray based transcriptional profiling relative to control
Candida parapsilosis [9] = experiment: Decrease in CGD gene ortholog accession number orf19.6462 expression in Candida parapsilosis CLIB214 at 50 uM after 2 hrs by microarray based transcriptional profiling relative to control
Candida parapsilosis [10] = experiment: Decrease in GenBank accession number XP_460297.1 expression in Candida parapsilosis CLIB214 at 50 uM after 2 hrs by microarray based transcriptional profiling relative to control
Candida parapsilosis [11] = experiment: Increase in CGD gene ortholog accession number orf19.2715 expression in Candida parapsilosis CLIB214 at 50 uM after 2 hrs by microarray based transcriptional profiling relative to control
Candida parapsilosis [12] = experiment: Decrease in CGD gene ortholog accession number orf19.1852 expression in Candida parapsilosis CLIB214 at 50 uM after 2 hrs by microarray based transcriptional profiling relative to control
Candida parapsilosis [13] = experiment: Increase in MNN2 gene expression in Candida parapsilosis CLIB214 at 50 uM after 2 hrs by microarray based transcriptional profiling relative to control
Candida parapsilosis [14] = experiment: Increase in UBI4 gene expression in Candida parapsilosis CLIB214 at 50 uM after 2 hrs by microarray based transcriptional profiling relative to control
Candida parapsilosis [15] = experiment: Increase in GenBank accession number NP_943636.1 expression in Candida parapsilosis CLIB214 at 50 uM after 2 hrs by microarray based transcriptional profiling relative to control
Candida parapsilosis [16] = experiment: Decrease in CGD gene ortholog accession number orf19.6797 expression in Candida parapsilosis CLIB214 at 50 uM after 2 hrs by microarray based transcriptional profiling relative to control
Candida parapsilosis [17] = experiment: Decrease in CGD gene ortholog accession number orf19.1595 expression in Candida parapsilosis CLIB214 at 50 uM after 2 hrs by microarray based transcriptional profiling relative to control
Candida parapsilosis [18] = experiment: Decrease in CGD gene ortholog accession number orf19.2400 expression in Candida parapsilosis CLIB214 at 50 uM after 2 hrs by microarray based transcriptional profiling relative to control
Candida parapsilosis [19] = experiment: Increase in CRZ2 gene expression in Candida parapsilosis CLIB214 at 50 uM after 2 hrs by microarray based transcriptional profiling relative to control
Candida parapsilosis [20] = experiment: Increase in HOM6 gene expression in Candida parapsilosis CLIB214 at 50 uM after 2 hrs by microarray based transcriptional profiling relative to control
Candida parapsilosis [21] = experiment: Increase in CGD gene ortholog accession number orf19.2367 expression in Candida parapsilosis CLIB214 at 50 uM after 2 hrs by microarray based transcriptional profiling relative to control
Candida parapsilosis [22] = experiment: Decrease in CGD gene ortholog accession number orf19.2565 expression in Candida parapsilosis CLIB214 at 50 uM after 2 hrs by microarray based transcriptional profiling relative to control
Candida parapsilosis [23] = experiment: Increase in CGD gene ortholog accession number orf19.6082 expression in Candida parapsilosis CLIB214 at 50 uM after 2 hrs by microarray based transcriptional profiling relative to control
Candida parapsilosis [24] = experiment: Increase in CGD gene ortholog accession number orf19.1814 expression in Candida parapsilosis CLIB214 at 50 uM after 2 hrs by microarray based transcriptional profiling relative to control
Candida parapsilosis [25] = experiment: Increase in CGD gene ortholog accession number orf19.2917 expression in Candida parapsilosis CLIB214 at 50 uM after 2 hrs by microarray based transcriptional profiling relative to control
Candida parapsilosis [26] = experiment: Decrease in CGD gene ortholog accession number orf19.1850 expression in Candida parapsilosis CLIB214 at 50 uM after 2 hrs by microarray based transcriptional profiling relative to control
Candida parapsilosis [27] = experiment: Decrease in CGD gene ortholog accession number orf19.2659 expression in Candida parapsilosis CLIB214 at 50 uM after 2 hrs by microarray based transcriptional profiling relative to control
Candida parapsilosis [28] = experiment: Decrease in CGD gene ortholog accession number orf19.894 expression in Candida parapsilosis CLIB214 at 50 uM after 2 hrs by microarray based transcriptional profiling relative to control
Candida parapsilosis [29] = experiment: Decrease in CGD gene ortholog accession number orf19.1723 expression in Candida parapsilosis CLIB214 at 50 uM after 2 hrs by microarray based transcriptional profiling relative to control
Candida parapsilosis [30] = experiment: Increase in CGD gene ortholog accession number orf19.2439 expression in Candida parapsilosis CLIB214 at 50 uM after 2 hrs by microarray based transcriptional profiling relative to control
Candida parapsilosis [31] = experiment: Increase in GLN1 gene expression in Candida parapsilosis CLIB214 at 50 uM after 2 hrs by microarray based transcriptional profiling relative to control
Candida parapsilosis [32] = experiment: Increase in CGD gene ortholog accession number orf19.6373 expression in Candida parapsilosis CLIB214 at 50 uM after 2 hrs by microarray based transcriptional profiling relative to control
Candida parapsilosis [33] = experiment: Increase in CGD gene ortholog accession number orf19.345 expression in Candida parapsilosis CLIB214 at 50 uM after 2 hrs by microarray based transcriptional profiling relative to control
Candida parapsilosis [34] = experiment: Increase in CGD gene ortholog accession number orf19.822 expression in Candida parapsilosis CLIB214 at 50 uM after 2 hrs by microarray based transcriptional profiling relative to control
Candida parapsilosis [35] = experiment: Increase in CGD gene ortholog accession number orf19.182 expression in Candida parapsilosis CLIB214 at 50 uM after 2 hrs by microarray based transcriptional profiling relative to control
Candida parapsilosis [36] = experiment: Increase in GenBank accession number NP_943631.1 expression in Candida parapsilosis CLIB214 at 50 uM after 2 hrs by microarray based transcriptional profiling relative to control

CC(C)=CCC/C(C)=C/CC/C(C)=C/CO [FARNESOL]
fold change (FC) (Candida parapsilosis [1]): 1.89
fold change (FC) (Candida parapsilosis [2]): 2.17
fold change (FC) (Candida parapsilosis [3]): 1.65
fold change (FC) (Candida parapsilosis [4]): 1.81
fold change (FC) (Candida parapsilosis [5]): 2.37
fold change (FC) (Candida parapsilosis [6]): 1.54
fold change (FC) (Candida parapsilosis [7]): 3.06
fold change (FC) (Candida parapsilosis [8]): 1.71
fold change (FC) (Candida parapsilosis [9]): 1.65
fold change (FC) (Candida parapsilosis [10]): 1.72
fold change (FC) (Candida parapsilosis [11]): 1.67
fold change (FC) (Candida parapsilosis [12]): 1.63
fold change (FC) (Candida parapsilosis [13]): 1.6
fold change (FC) (Candida parapsilosis [14]): 1.94
fold change (FC) (Candida parapsilosis [15]): 2.18
fold change (FC) (Candida parapsilosis [16]): 1.63
fold change (FC) (Candida parapsilosis [17]): 1.83
fold change (FC) (Candida parapsilosis [18]): 1.71
fold change (FC) (Candida parapsilosis [19]): 1.56
fold change (FC) (Candida parapsilosis [20]): 2.31
fold change (FC) (Candida parapsilosis [21]): 1.63
fold change (FC) (Candida parapsilosis [22]): 1.75
fold change (FC) (Candida parapsilosis [23]): 1.65
fold change (FC) (Candida parapsilosis [24]): 1.86
fold change (FC) (Candida parapsilosis [25]): 2.52
fold change (FC) (Candida parapsilosis [26]): 1.62
fold change (FC) (Candida parapsilosis [27]): 4.31
fold change (FC) (Candida parapsilosis [28]): 1.69
fold change (FC) (Candida parapsilosis [29]): 1.83
fold change (FC) (Candida parapsilosis [30]): 1.76
fold change (FC) (Candida parapsilosis [31]): 2.94
fold change (FC) (Candida parapsilosis [32]): 1.79
fold change (FC) (Candida parapsilosis [33]): 1.71
fold change (FC) (Candida parapsilosis [34]): 2.15
fold change (FC) (Candida parapsilosis [35]): 1.61
fold change (FC) (Candida parapsilosis [36]): 2.3
